This is one part of the list. The main result of the screen is listed elsewhere. These columns were measured beside it and carry no call. Compounds called inactive in the main read-out are mostly missing here. Potencies come from curve fits of mixed quality, noted in brackets.
Assay: qHTS Assay for Lipid Storage Modulators in Drosophila S3 Cells;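 for cell number change: cells counted by Cell Tracker Red CMTPX staining in the red channel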
Details: BODIPY lipid droplet fluorescence, 18-24 h; for cell number change: measured here: cell count max response, cells fed with added oleic acid
Summary of the method: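 Drosophila S3 cells loaded with oleic acid (400 uM, as added) and compounds at several concentrations; lipid droplets imaged by 488-nm laser-scanning cytometry, 500–530 nm intensity and object ratio to cell channel. Percent activity normalized to 20 uM Triacsin C.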

[1] = measured here: cell number channel AC50, cells fed with added oleic acid
[2] = measured here: lipid fluorescence (Fed channel) AC50, cells fed with added oleic acid

Compound | cell number change [%] | AC50 [1] | AC50 [2]
COCCN(C(=O)COC(=O)C1CCC(C(C)(C)C)CC1)c1c(N)n(Cc2ccccc2)c(=O)[nH]c1=O (configuration not stated) | -36 | 5.8 µM [falling, full curve, poor fit] | –
CCCNC(=O)CC(NS(=O)(=O)c1ccc(NC(C)=O)cc1)C(C)C (configuration not stated) | 3.62 | 6.51 µM [falling, single point] | 6.51 µM [falling, single point]
COC(OC)c1ccnc(-c2ccc(OC(=O)c3ccc(F)cc3)cc2)n1 | -17 | – | 29.1 µM [falling, single point]
COc1ccccc1NS(=O)(=O)c1cc(NC(=O)Nc2cccc(C)c2)ccc1N1CCCCC1 | -12.5 | – | 29.1 µM [falling, single point]
CCOC(=O)c1ccc(N2CSC3=C(C#N)C(c4ccc(OC)cc4OC)CC(=O)N3C2)cc1 (configuration not stated) | -28 | – | 16.4 µM [falling, single point]
COc1ccc(/C=N\NC(=O)CNC(=O)C(c2ccccc2)c2ccccc2)cc1[N+](=O)[O-] | -36.6 | 18.4 µM [falling, partial curve, poor fit] | 29.1 µM [rising, single point]
CCOC(=O)c1c(C)[nH]c(C)c1C(=O)CSc1nnnn1-c1ccccc1 | – | 0.58 µM [rising, full curve] | 1.64 µM [rising, partial curve]
Cc1ccsc1-c1nc(CSCC(=O)N2CCN(c3ccccc3)CC2)c(C)o1 | -56.5 | 11.6 µM [falling, partial curve] | 18.4 µM [falling, single point]
OCCN(CCO)Cc1ccc(Br)cc1 | -99.1 | 25.9 µM [falling, partial curve] | 23.1 µM [falling, partial curve]
CCOc1ccccc1CNC(CC)CO (configuration not stated) | -37.3 | 20 µM [falling, single point] | –
Cc1ccccc1CNC(=O)c1ccccc1N | -2.93 | – | –
CC(Sc1nnc(C2CC2)n1C)C(=O)Nc1ccc2c(c1)CCC2 (configuration not stated) | 12.1 | – | 0.092 µM [falling, single point]
CC1CC(C)(C)NCCNC(C)CC(C)(C)NCCN1 (configuration not stated) | 0.74 | – | 0.366 µM [falling, partial curve]
CC(NC(=O)c1ccc(Br)cc1)c1ccccc1 (configuration not stated) | -1.74 | – | 0.461 µM [rising, full curve, poor fit]
COc1cc(C(=S)N2CCOCC2)cc(OC)c1OC | -30.6 | 0.00461 µM [falling, full curve, poor fit] | 0.731 µM [falling, full curve]
CCc1ccc(C2CC(c3cccc(Cl)c3)n3nc(N)nc3N2)cc1 (configuration not stated) | -10.8 | – | –
O=C(NNC(=O)c1cc(-c2cccnc2)nc2ccccc12)Nc1ccc(Cl)cc1 | 73.1 | – | –
O=C(CSc1nnc(CNC(=O)c2c(F)cccc2Cl)o1)NCc1ccc2c(c1)OCO2 | 2.7 | – | 18.4 µM [falling, partial curve]
COc1ccc(-c2ccc(-c3nnc(-c4ccncc4)o3)cc2)cc1 | 19.5 | 0.13 µM [rising, full curve, poor fit] | 0.82 µM [rising, full curve, poor fit]
CCCOc1ccccc1C1NC(=O)NC(C)=C1C(=O)OCCOC(C)C (configuration not stated) | -15.6 | – | 4.61 µM [rising, full curve, poor fit]
COC(=O)c1sccc1-n1cccc1C(=O)C(=O)Nc1ccc(F)cc1 | -49.1 | 5.17 µM [falling, full curve, poor fit] | 5.8 µM [falling, full curve]
O=C(COC(=O)c1cccc(N2C(=O)C3CC=CCC3C2=O)c1)c1ccccc1 (configuration not stated) | -27.5 | – | 0.651 µM [rising, single point]
COC(=O)c1ccccc1S(=O)(=O)N1CCC(C(=O)NCC2CCCO2)CC1 (configuration not stated) | -24.2 | 4.11 µM [falling, full curve, poor fit] | 4.11 µM [falling, full curve, poor fit]
CCOC(=O)c1c(NC(=O)c2ccccc2)sc2c1CCc1ccccc1-2 | 31 | 1.46 µM [rising, full curve, poor fit] | –
O=C(Nc1ccc(F)c(F)c1)NC1CCCCC1 | 1.96 | – | 0.00651 µM [falling, full curve, poor fit]
O=C(NCc1ccc2c(c1)OCO2)C1CCC(=O)N1C1CCCC1 (configuration not stated) | 31.1 | 0.092 µM [rising, full curve, poor fit] | 32.6 µM [rising, single point]
O=C(C1CC(c2ccc(F)cc2)=NO1)N1CCN(c2ccccc2)CC1 (configuration not stated) | -14.4 | 1.46 µM [falling, partial curve, poor fit] | –

Compound | cell number change [%] | AC50 [1] | AC50 [2]
CC(CCc1ccccc1)NC(=O)Cn1cccc1C(=O)c1ccccc1 (configuration not stated) | 13.9 | – | 2.59 µM [rising, full curve]
CCCN1CCC(=O)N([C@H](CSc2ccc(OC)cc2)c2ccccc2)CC1 | 29.1 | – | 0.517 µM [rising, full curve, poor fit]
CCN(C(=O)COC(=O)/C=C/c1cccc(Br)c1)C1CCS(=O)(=O)C1 (configuration not stated) | – | – | 32.6 µM [rising, single point]
CC(OC(=O)Cc1ccsc1)C(=O)Nc1ccc(C(N)=O)cc1 (configuration not stated) | -43.1 | 5.8 µM [falling, full curve, poor fit] | 0.058 µM [falling, full curve, poor fit]
CSc1nnc(CCCCCNC(=O)OC(C)(C)C)o1 | 1.29 | 2.91 µM [rising, single point] | –
COc1cc(NC(=O)c2cc(=O)[nH]c3ccc(S(=O)(=O)N4CCOCC4)cc23)cc(OC)c1 | -50 | 0.0146 µM [falling, full curve, poor fit] | 0.00517 µM [rising, full curve, poor fit]
Cc1ccc(S(=O)(=O)/N=C(/Nc2ccc(F)cc2F)c2ccc(F)cc2)cc1 | 26.4 | – | –
CN1c2ccccc2N(C)C1(C)c1ccccc1 | -47.3 | 32.6 µM [falling, single point] | 29.1 µM [falling, single point]
COc1ccc(S(=O)(=O)N2c3ccccc3OCC2C)cc1 (configuration not stated) | 32.6 | – | –
COc1ccc(OC)c(C2C3=C(N=c4s/c(=C\c5cccc(O)c5)c(=O)n42)c2ccccc2CC3)c1 (configuration not stated) | – | 0.731 µM [rising, full curve] | 16.4 µM [falling, partial curve]
CCCCn1nc(NC(=O)CC)c2cc3cc(OC)ccc3nc21 | -13.4 | – | –
CCCN1C(=O)/C(=C/c2c(N3CCNC(=O)C3CC(=O)OC)nc3c(C)cccn3c2=O)SC1=S (configuration not stated) | -103 | 4.61 µM [falling, full curve] | 2.91 µM [falling, full curve]
CCC1CCCCN1C(=O)c1cc(COc2ccc3ncccc3c2)on1 (configuration not stated) | -46.2 | 8.2 µM [falling, partial curve] | 8.2 µM [falling, partial curve]
CCSCCOC(=O)C1=C(C)NC(=O)NC1c1ccc2c(c1)OCO2 (configuration not stated) | -30 | 11.6 µM [falling, partial curve, poor fit] | 29.1 µM [rising, single point]
Cn1nccc1C(=O)N1CCN(c2cccc(Cl)c2)CC1 | -6.91 | – | 29.1 µM [falling, single point]
CN(C)c1cccc(Oc2nc3c(c(=O)n(C)c(=O)n3C)n2C)c1 | 22.8 | – | 29.1 µM [falling, single point]
CC1(c2ccccc2)CC(C)(C)N(C(=O)c2cc([N+](=O)[O-])cc([N+](=O)[O-])c2)c2ccccc21 (configuration not stated) | -30.2 | – | 29.1 µM [falling, single point]
O=C(COC(=O)c1cc(NS(=O)(=O)c2cccs2)ccc1O)Nc1cc(Cl)ccc1Cl | 0.339 | – | 0.13 µM [rising, full curve, poor fit]
Cc1ccc(OCCNC(=O)CNC(=O)c2ccccc2Cl)cc1 | -3.61 | – | 0.00411 µM [falling, full curve, poor fit]
Cc1cc(C)n(-c2ccc(C(=O)Nc3sccc3C(N)=O)cc2)n1 | 2.6 | – | 5.17 µM [falling, full curve, poor fit]
Cc1ccc(CNC(=O)c2ccc(N3CCCC3=O)cc2)cc1 | 55.1 | 5.8 µM [rising, partial curve] | 29.1 µM [rising, single point]
c1cnn(Cc2cnc(N3CCOCC3)s2)c1 | -49.8 | 29.1 µM [falling, single point] | 23.1 µM [falling, single point]
Cc1ccc(C2=Nc3ccccc3NC(C)(c3ccc(C)o3)C2)o1 (configuration not stated) | – | 2.59 µM [rising, partial curve] | 2.06 µM [rising, partial curve]
COC(=O)CNC(=O)COC(=O)c1cc(SC)ccc1Cl | 4.15 | 0.731 µM [falling, single point] | –
Cc1ccc(C)c(N2N=C(C(=O)NCCN3C(=O)S/C(=C\c4cccnc4)C3=O)CCC2=O)c1 | -30.9 | 10.3 µM [falling, partial curve] | –
COc1ccc(NC(=O)CN2CCCC2c2cccs2)cc1S(=O)(=O)N1CCCCC1 (configuration not stated) | -1.81 | – | 29.1 µM [rising, single point]
CC12CCC(=O)N1C(C(=O)NCc1ccccc1F)CS2 (configuration not stated) | – | – | 29.1 µM [rising, single point]

Reformatted as labelled records: four of the compounds above
CCCCn1nc(NC(=O)CC)c2cc3cc(OC)ccc3nc21
  cell number change [%]: -13.4
CCCN1C(=O)/C(=C/c2c(N3CCNC(=O)C3CC(=O)OC)nc3c(C)cccn3c2=O)SC1=S (configuration not stated)
  cell number change [%]: -103; AC50 [1]: 4.61 µM [falling, full curve]; AC50 [2]: 2.91 µM [falling, full curve]
CCC1CCCCN1C(=O)c1cc(COc2ccc3ncccc3c2)on1 (configuration not stated)
  cell number change [%]: -46.2; AC50 [1]: 8.2 µM [falling, partial curve]; AC50 [2]: 8.2 µM [falling, partial curve]
CCSCCOC(=O)C1=C(C)NC(=O)NC1c1ccc2c(c1)OCO2 (configuration not stated)
  cell number change [%]: -30; AC50 [1]: 11.6 µM [falling, partial curve, poor fit]; AC50 [2]: 29.1 µM [rising, single point]

From PubChem BioAssay AID2685 (National Center for Advancing Translational Sciences (NCATS), 2010)
